PubChem BioAssay AID686937 – Drosophila RNAi Screening Center, 2013
Aim: 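Genes in the fly needed for secretion of protein constitutively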 (primary screen). Cell system: Drosophila S2 cells expressing secreted horseradish peroxidase. Reagents: long dsRNA against Drosophila genes. Timing: about 5.5 days (5 days dsRNA, then 12 h reporter induction). Treatment: reporter expression induced after 5 days of dsRNA, read 12 h later; inducer not stated. Measured: 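Chemiluminescent measurement of peroxidase in the medium 12 h after reporter induction, following 5 days of dsRNA, given as a z-score per plate; higher means more secretion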. Reading the numbers: z-score: higher = more reporter secreted into medium.
The screen tested about 23,000 reagents; below is a random part of those that have a named target and a result. 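Reduced-secretion tags in replicate 1 do not always agree with the z-scores; no criterion for assigning the tags was given.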 Further read-outs or replicates are left out here. No sequences are given here. The record does not give: the amount of reagent.

z-score, replicate 1, by target gene and reagent
CG14598: DRSC12541 0.21
CG3740: DRSC18508 0.21
CG14356: DRSC14819 0.46
ND-B8: DRSC00449 0.24
ebd2: DRSC11682 0.25
CG9582: DRSC03267 0.24
Npc2g: DRSC14296 -0.09
mbl: DRSC05657 0.26; DRSC06449 0.49; DRSC07651 -0.84
CG14100: DRSC10101 0.09
Ptpa: DRSC00776 0.22
CG5172: DRSC19936 -0.45
Der-2: DRSC15021 -0.11
fd59A: DRSC04685 0.2
Cirl: DRSC07227 -1.18; DRSC21942 0.93
zen2: DRSC12633 0.13
CG3788: DRSC04418 0.04
Hex-C: DRSC07079 -0.18
Dsk: DRSC12347 0.24
Uch-L5: DRSC11314 0.33
CG34370: DRSC03913 0.41; DRSC04142 0.2; DRSC04143 0.28; DRSC04144 0.29
CG15005: DRSC08459 0.49
CG31926: DRSC00295 0.35
CG42450: DRSC20022 0.07; DRSC22751 0.05
GluRIID: DRSC16723 0.25
bou: DRSC17924 0.2
Bmcp: DRSC10808 0.36
RpS21: DRSC00833 -0.04
CG4884: DRSC15671 0.31
CG15864: DRSC15122 0.2
CG13775: DRSC02279 0.68
hoip: DRSC03546 -6.47
CG14823: DRSC10194 -0.09
Lasp: DRSC10379 0.7
dpr8: DRSC19406 -0.14; DRSC19600 0.36; DRSC19938 0.25; DRSC19939 0.19
CG7120: DRSC08921 0.76; DRSC10773 0.27
CG7025: DRSC03002 0.29
CG8460: DRSC03090 0.28
Pdzd8: DRSC19355 -0.26
Vha55: DRSC16896 0.19
Nse1: DRSC02147 0.17
Acp62F: DRSC08136 0.2
Snap29: DRSC04721 0.43
CG42493: DRSC05309 -0.8
CG6788: DRSC20007 0.07
Ref2: DRSC02563 0.46
unc-119: DRSC18846 0.33
CG2493: DRSC02707 -0.08
Rep: DRSC07526 -1.4
NELF-B: DRSC17734 0.76
Pcd: DRSC16785 0.18
CG4459: DRSC15582 0.57
CG32727: DRSC17519 -0.17
CG43188: DRSC05260 0.42
y: DRSC18853 0.18
Sugb: DRSC10815 0.1
Tctp: DRSC15649 0.05
CG9624: DRSC16523 0.3
mldr: DRSC18100 0.51
l(2)k10201: DRSC06439 0.25; DRSC07640 0.28
ATPsynbetaL: DRSC10503 0.16
Scm: DRSC16853 0.16
Uros1: DRSC18191 0.45
CG15368: DRSC18040 0.25
CG8353: DRSC03084 -0.1
Ptp99A: DRSC13933 0.54; DRSC13939 0.62; DRSC14319 0.26; DRSC14320 0.12; DRSC16803 0.31; DRSC22125 0; DRSC22477 0.65
CG7564: DRSC10880 0.18
Pde11: DRSC02028 0.86; DRSC02460 -0.42
CR18275: DRSC18151 0.4
PolA2: DRSC16641 0.02
opm: DRSC20141 0.1; DRSC22135 -0.34
CG17974: DRSC04299 0
CG31960: DRSC00281 -0.01
CG13643: DRSC14641 0; DRSC14642 -0.08
CG33775: DRSC05353 -0.89
GstE4: DRSC06674 0.19
miple1: DRSC08722 0.56
CG32376: DRSC22754 -0.11
Sf3b3: DRSC08370 0.33
CG32246: DRSC08115 0.32
CG34011: DRSC00888 0.04
Gem2: DRSC09721 -0.03
Mpc1: DRSC14770 0.39
CG6271: DRSC16006 0.46

Not a retest: entries from further up.
z-score, replicate 1, by target gene and reagent
CR18275: DRSC18151 0.4
PolA2: DRSC16641 0.02
opm: DRSC20141 0.1; DRSC22135 -0.34
CG17974: DRSC04299 0
CG31960: DRSC00281 -0.01
CG13643: DRSC14641 0; DRSC14642 -0.08
CG33775: DRSC05353 -0.89
GstE4: DRSC06674 0.19
miple1: DRSC08722 0.56
CG32376: DRSC22754 -0.11
Sf3b3: DRSC08370 0.33
CG32246: DRSC08115 0.32
